# In patent US5891661A, “Low temperature assay for active HCMV protease in dimeric form” (Merck & Co., Inc., priority 1997, dated 1999):
# At least one read-out could not be matched to a standard name with certainty.
# Target: HCMV protease
# Assay: Dependence of protease specific activity on temperature, enzyme and glycerol concentrations (dilution)
# Assay type: biochemical, human cytomegalovirus
# Settings: 30° C., 20% glycerol; read-out: Kd for dimer dissociation (from dependence of activity on enzyme concentration)
# Protocol: Dependence of Protease Specific Activity on Enzyme and Glycerol Concentrations
# Dilution of a concentrated solution of HCMV protease produces a time-dependent change in activity to a new, lower level. The rate and extent of the change in protease activity is a function of temperature. […] At temperatures above 20° C., the change in activity (t1/2 ≤30 min) upon enzyme dilution is such that an accurate assessment of activity requires a rapid assay (ca. 1 min).
# The specific activity of the HCMV protease increases at higher enzyme and glycerol concentrations. […] It can be shifted back to the higher activity seen for 20% glycerol by addition of an equal volume of buffer containing 30% glycerol to produce a solution containing 20% glycerol, followed by further incubation. Thus, the dependence of HCMV protease activity on enzyme and glycerol concentrations is reversible.
# The dependence of HCMV protease activity on enzyme concentration can be interpreted in terms of a monomer-dimer equilibrium wherein only the dimeric form of the enzyme is active.
substance,measurement,value
"HCMV protease: N-terminal 256 amino acid protease domain of HCMV strain AD169, recombinantly expressed in E. coli",Kd,550 nM
